# Patent US20260125440A1 (ELI LILLY AND COMPANY, priority 2019, published 2026)
# Test: peptide synthesis
# Conditions: whole synthesis, TFA salt
substance,measurement,value
YAibQGT-αMeF(2F)-TSDYSILLDOK(2-[2-(2-amino-ethoxy)-ethoxy]-acetyl-γE-CO—(CH2)18—CO2H)AQ-4Pal-AFIEYLLEGGPSSGEPPPE-NH2.,final HPLC purity,>98.0%
